From article PMC11150407 come the findings set out here.

Sequences of proteins named here, by UniProt entry; tags and fusion partners are left off. A change or cut given only in a name is not applied to a line headed by its entry.
UniProt Q03112: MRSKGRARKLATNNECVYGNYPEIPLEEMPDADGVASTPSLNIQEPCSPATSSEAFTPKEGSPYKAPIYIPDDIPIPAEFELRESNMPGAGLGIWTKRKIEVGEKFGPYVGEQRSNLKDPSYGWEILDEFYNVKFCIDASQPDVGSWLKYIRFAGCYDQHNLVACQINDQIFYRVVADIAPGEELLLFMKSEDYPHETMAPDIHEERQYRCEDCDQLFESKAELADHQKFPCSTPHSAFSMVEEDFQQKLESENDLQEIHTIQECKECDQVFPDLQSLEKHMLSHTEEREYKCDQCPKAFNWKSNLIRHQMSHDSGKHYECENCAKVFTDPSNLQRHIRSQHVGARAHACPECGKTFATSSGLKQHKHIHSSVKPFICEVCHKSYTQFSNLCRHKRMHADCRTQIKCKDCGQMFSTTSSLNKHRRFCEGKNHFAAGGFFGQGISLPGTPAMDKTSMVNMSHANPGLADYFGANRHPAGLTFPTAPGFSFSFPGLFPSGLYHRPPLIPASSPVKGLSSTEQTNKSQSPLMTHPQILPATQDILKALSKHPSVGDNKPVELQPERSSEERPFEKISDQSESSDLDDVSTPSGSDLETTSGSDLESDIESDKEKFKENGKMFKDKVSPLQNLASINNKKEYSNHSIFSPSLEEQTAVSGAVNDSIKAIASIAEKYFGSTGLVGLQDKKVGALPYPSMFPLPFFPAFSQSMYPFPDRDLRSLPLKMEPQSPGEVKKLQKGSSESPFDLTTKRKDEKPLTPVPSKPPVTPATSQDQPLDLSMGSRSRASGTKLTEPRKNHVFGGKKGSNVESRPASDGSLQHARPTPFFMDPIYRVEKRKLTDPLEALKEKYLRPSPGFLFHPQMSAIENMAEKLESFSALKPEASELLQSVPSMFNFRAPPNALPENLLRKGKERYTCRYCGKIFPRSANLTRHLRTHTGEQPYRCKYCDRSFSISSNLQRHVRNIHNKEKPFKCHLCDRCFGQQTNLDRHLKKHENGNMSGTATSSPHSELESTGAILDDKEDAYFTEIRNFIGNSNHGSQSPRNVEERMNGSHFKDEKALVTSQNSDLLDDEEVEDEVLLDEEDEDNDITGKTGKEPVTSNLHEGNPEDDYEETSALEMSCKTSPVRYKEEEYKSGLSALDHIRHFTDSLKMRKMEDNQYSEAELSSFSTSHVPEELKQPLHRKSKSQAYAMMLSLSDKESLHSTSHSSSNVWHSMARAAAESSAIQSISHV

Results are given in words; binding and its absence hold for the method and conditions named. In cells and extracts the contact can be indirect. Binding calls can cover weak binding; strength is not graded here.

The target in this assay is ecotropic viral integration site-1 (EVI1/MECOM) (human (endogenous in HNT34, UCSD/AML1 and PDLX_PR#003 cells)) (UniProt Q03112). Briefly: co-IP; endogenous proteins, HNT34 lysate (Cell Lysis Buffer II); overnight with anti-EVI1 (C50E12), anti-PA2G4 (Proteintech 15348-1-AP) or normal rabbit IgG, 1 ug/mg; Dynabeads protein G 2 hr at 4 C.

B1: proliferation-associated 2G4 (PA2G4) protein (protein, UniProt Q9UQ80 1-394)
chain: MSGEDEQQEQTIAEDLVVTKYKMGGDIANRVLRSLVEASSSGVSVLSLCEKGDAMIMEETGKIFKKEKEMKKGIAFPTSISVNNCVCHFSPLKSDQDYILKEGDLVKIDLGVHVDGFIANVAHTFVVDVAQGTQVTGRKADVIKAAHLCAEAALRLVKPGNQNTQVTEAWNKVAHSFNCTPIEGMLSHQLKQHVIDGEKTIIQNPTDQQKKDHEKAEFEVHEVYAVDVLVSSGEGKAKDAGQRTTIYKRDPSKQYGLKMKTSRAFFSEVERRFDAMPFTLRAFEDEKKARMGVVECAKHELLQPFNVLYEKEGEFVAQFKFTVLLMPNGPMRITSGPFEPDLYKSEMEVQDAELKALLQSSASRKTQKKKKKKASKTAENATSGETLEENEAGD
In the case of B1, the binding result was “binds”.
